# Values of other authors in patent publication US20100183739A1, “Treatment and prevention of systemic bacterial infections in plants using antimicrobial metal compositions” (priority 2009, published 2010).
# For at least one compound, name, drawing or mass did not settle the structure.
# System: X. fastidiosa
# Conditions: in vivo
compound,measurement,value
CN(C)[C@@H]1C(O)=C(C(N)=O)C(=O)[C@@]2(O)C(O)=C3C(=O)c4c(O)cccc4[C@@](C)(O)[C@H]3[C@H](O)[C@@H]12 [oxytetracycline],effect on disease,only afford temporary suppression of disease
